These results are taken from paper PMC13170675, “A Wnt-induced conformational phospho-switch in DVL3 controls association with Frizzled receptors and Wnt/β-catenin signaling” (Science Advances, 2026).

These are yes or no findings as the source states them, for the method shown.

In assay [1] the target is T1, hDVL3 PDZ domain (amino acids 243 to 351) (human) (UniProt Q92997).
T1 sequence: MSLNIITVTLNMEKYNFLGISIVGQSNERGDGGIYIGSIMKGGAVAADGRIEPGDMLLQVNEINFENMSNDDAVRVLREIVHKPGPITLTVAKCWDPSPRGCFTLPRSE
The experiment in a line: NMR titration; 1H-15N HSQC of 50 μM 15N-labelled protein, unlabelled partner added in excess or serially; 50 mM KCl, 50 mM phosphate buffer (pH 6.5), 1 mM dEDTA, 25°C; both purified.

Assay [2] addresses T2, hDVL3 IDR2 (amino acids 335 to 396), nonphosphorylated (human) (UniProt Q92997).
T2 sequence: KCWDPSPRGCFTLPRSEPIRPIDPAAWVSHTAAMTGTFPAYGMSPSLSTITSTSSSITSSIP
The assay is described as above.

B1: hDVL3 IDR2 (amino acids 335 to 396), nonphosphorylated (domain or fragment, UniProt Q92997 335-396)
chain: T2 sequence
Regarding B1, in assay [1], the binding result is recorded as “no binding”.

B2: hDVL3 PDZ domain (amino acids 243 to 351) (domain or fragment, UniProt Q92997 243-351)
chain: T1 sequence
In the case of B2, in assay [2], the binding result is recorded as “no binding”.
